Results published in publication PMC8152081.
Results are given in words; binding and its absence hold for the method and conditions named. Binding seen in cells or lysates may run through a third protein. Some binding calls cover weakened binding; strength is not graded here. For some of these results: Tags and fused reporters may be left off the sequences shown. Values belong to the molecule of their own block, whether it stands above or below them.

Sequences of proteins named here, by UniProt entry; tags and fusion partners are left off. Residues count along the entry.
UniProt Q15303, residues 26-1308: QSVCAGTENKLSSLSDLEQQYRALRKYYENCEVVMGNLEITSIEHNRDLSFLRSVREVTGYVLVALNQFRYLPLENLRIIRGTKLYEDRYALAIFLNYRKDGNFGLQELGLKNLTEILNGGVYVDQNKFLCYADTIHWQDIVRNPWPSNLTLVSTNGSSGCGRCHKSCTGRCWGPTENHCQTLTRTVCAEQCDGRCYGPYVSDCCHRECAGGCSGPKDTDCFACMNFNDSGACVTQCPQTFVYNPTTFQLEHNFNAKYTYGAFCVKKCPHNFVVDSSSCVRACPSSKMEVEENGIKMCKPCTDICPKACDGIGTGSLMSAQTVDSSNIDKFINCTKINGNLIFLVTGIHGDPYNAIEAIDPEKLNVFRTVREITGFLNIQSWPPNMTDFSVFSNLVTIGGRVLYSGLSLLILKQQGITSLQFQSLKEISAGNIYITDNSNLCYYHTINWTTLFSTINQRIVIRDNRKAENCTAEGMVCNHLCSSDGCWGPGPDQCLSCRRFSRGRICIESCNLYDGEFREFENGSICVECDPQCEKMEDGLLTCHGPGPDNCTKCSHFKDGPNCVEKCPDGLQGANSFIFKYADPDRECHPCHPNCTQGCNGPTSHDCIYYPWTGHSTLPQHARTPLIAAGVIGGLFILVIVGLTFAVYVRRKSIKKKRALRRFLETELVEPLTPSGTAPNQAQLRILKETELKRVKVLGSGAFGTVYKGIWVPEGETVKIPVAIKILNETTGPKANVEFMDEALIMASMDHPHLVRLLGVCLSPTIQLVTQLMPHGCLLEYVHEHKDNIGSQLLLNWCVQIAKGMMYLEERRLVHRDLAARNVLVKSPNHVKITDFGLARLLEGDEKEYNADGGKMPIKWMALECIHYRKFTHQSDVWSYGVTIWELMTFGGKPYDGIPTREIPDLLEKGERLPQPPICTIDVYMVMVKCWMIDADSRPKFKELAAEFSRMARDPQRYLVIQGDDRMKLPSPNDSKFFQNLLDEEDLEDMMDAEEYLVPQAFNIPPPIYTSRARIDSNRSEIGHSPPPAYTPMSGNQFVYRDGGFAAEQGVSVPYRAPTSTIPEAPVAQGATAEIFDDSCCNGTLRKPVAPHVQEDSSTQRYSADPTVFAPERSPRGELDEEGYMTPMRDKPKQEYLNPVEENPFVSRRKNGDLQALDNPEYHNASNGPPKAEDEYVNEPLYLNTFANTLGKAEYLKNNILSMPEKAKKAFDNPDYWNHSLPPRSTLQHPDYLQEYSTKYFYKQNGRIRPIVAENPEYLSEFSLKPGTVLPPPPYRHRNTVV

Experiments:
[1] = target: T1, KITENIN (in Caco2 cells, immunoprecipitation step of the compound screen) (UniProt Q8TAA9); assay: co-IP; immunoprecipitation in Caco2 CRC cells, step of the compound screen for compounds that interfere with the KITENIN–ErbB4 interaction
T1 sequence: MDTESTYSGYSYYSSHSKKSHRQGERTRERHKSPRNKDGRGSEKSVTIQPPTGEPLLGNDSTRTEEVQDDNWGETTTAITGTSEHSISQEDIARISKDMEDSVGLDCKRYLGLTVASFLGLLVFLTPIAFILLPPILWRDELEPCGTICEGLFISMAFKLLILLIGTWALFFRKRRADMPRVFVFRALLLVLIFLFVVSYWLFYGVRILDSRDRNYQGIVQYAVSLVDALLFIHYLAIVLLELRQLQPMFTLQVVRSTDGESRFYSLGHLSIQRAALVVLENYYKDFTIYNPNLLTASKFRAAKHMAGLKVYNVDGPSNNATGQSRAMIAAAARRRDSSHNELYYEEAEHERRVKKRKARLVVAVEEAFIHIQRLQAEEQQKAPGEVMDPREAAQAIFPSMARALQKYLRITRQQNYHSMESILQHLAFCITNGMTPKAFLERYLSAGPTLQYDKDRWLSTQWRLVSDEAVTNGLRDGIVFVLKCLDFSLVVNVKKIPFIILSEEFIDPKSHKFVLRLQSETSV

[2] = target: T2, KH-type splicing regulatory protein (KSRP) (human (endogenous; immunoprecipitations used 293 T, Caco2 or HCT116 lysates)) (UniProt Q92945); assay: co-IP; IP with KSRP-specific antibody, blot for KITENIN; with or without DKC1125 (0.5 μM)
T2 sequence: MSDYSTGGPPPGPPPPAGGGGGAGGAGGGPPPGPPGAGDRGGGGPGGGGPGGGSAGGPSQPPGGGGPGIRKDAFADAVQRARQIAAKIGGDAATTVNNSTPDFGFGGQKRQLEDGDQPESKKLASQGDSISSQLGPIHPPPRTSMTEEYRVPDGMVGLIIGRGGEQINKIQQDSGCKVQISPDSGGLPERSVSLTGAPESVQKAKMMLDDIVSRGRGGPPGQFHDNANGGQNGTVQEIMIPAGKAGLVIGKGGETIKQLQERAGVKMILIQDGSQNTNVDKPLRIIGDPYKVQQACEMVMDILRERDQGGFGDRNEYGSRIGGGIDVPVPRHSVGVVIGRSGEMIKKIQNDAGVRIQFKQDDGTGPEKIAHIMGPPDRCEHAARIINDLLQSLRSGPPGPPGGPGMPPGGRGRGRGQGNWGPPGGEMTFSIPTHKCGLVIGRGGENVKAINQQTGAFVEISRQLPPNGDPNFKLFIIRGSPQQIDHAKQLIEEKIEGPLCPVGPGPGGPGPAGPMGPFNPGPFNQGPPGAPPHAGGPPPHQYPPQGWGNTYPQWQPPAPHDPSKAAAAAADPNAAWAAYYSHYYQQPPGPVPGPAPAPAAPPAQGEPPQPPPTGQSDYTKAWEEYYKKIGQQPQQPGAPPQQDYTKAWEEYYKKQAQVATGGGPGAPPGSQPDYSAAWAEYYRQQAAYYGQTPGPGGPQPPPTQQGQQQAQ

[3] = target: T3, full-length KSRP-myc (WT) (UniProt Q92945); assay: co-IP; Caco2 cells transfected with myc-tagged KSRP (WT, Δ12, Δ34, ΔC) and GFP-tagged RACK1 or V5-tagged KITENIN
T3 sequence: T2 sequence

[4] = target: T4, KH-type splicing regulatory protein (KSRP), endogenous in Caco2 cells (human (endogenous in Caco2)) (UniProt Q92945); assay: co-IP; Caco2 cells stably expressing EV or KITENIN-V5, cytoplasmic–nuclear fractionation, vehicle or DKC1125 (0.5 μM); precipitates immunoblotted to detect KSRP-Dvl binding
T4 sequence: T2 sequence

B2: KITENIN-V5 (V5-tagged KITENIN) (protein, UniProt Q8TAA9 1-524)
chain: T1 sequence
- binding [3]: binds

B3: Dishevelled 1 (Dvl1), endogenous in Caco2 cells (protein, UniProt O14640 1-695)
chain: MAETKIIYHMDEEETPYLVKLPVAPERVTLADFKNVLSNRPVHAYKFFFKSMDQDFGVVKEEIFDDNAKLPCFNGRVVSWLVLAEGAHSDAGSQGTDSHTDLPPPLERTGGIGDSRPPSFHPNVASSRDGMDNETGTESMVSHRRERARRRNREEAARTNGHPRGDRRRDVGLPPDSASTALSSELESSSFVDSDEDGSTSRLSSSTEQSTSSRLIRKHKRRRRKQRLRQADRASSFSSITDSTMSLNIVTVTLNMERHHFLGISIVGQSNDRGDGGIYIGSIMKGGAVAADGRIEPGDMLLQVNDVNFENMSNDDAVRVLREIVSQTGPISLTVAKCWDPTPRSYFTVPRADPVRPIDPAAWLSHTAALTGALPRYGTSPCSSAVTRTSSSSLTSSVPGAPQLEEAPLTVKSDMSAVVRVMQLPDSGLEIRDRMWLKITIANAVIGADVVDWLYTHVEGFKERREARKYASSLLKHGFLRHTVNKITFSEQCYYVFGDLCSNLATLNLNSGSSGTSDQDTLAPLPHPAAPWPLGQGYPYQYPGPPPCFPPAYQDPGFSYGSGSTGSQQSEGSKSSGSTRSSRRAPGREKERRAAGAGGSGSESDHTAPSGVGSSWRERPAGQLSRGSSPRSQASATAPGLPPPHPTTKAYTVVGGPPGGPPVRELAAVPPELTGSRQSFQKAMGNPCEFFVDIM
- binding [4]: binds

Continued, values first:

- binding [1]: binds
Molecule: ErbB4 (in Caco2 cells, immunoprecipitation step of the compound screen) (from UniProt Q15303 26-1308) (receptor)

- binding [2]: binds
B1: KITENIN (KAI1 C-terminal interacting tetraspanin, Vangl1) (protein, UniProt Q8TAA9 1-524)
chain: T1 sequence
